Laboratory results from PMC7604311, “Caprine Bactenecins as Promising Tools for Developing New Antimicrobial and Antitumor Drugs” (Frontiers in Cellular and Infection Microbiology, 2020).

Tested on: human PBMC vs bacteria
Assay: Selectivity index SIh/b (human cells vs bacteria)

In the case of `CC[C@H](C)[C@H](NC(=O)[C@H](CCCNC(=N)N)NC(=O)[C@@H](NC(=O)[C@H](Cc1ccccc1)NC(=O)[C@@H]1CCCN1C(=O)[C@@H]1CCCN1C(=O)[C@@H]1CCCN1C(=O)[C@H](Cc1c[nH]cn1)NC(=O)[C@@H](NC(=O)[C@H](CCCNC(=N)N)NC(=O)[C@H](CCCNC(=N)N)NC(=O)[C@H](Cc1ccccc1)NC(=O)[C@@H]1CCCN1C(=O)[C@H](CC(C)C)NC(=O)[C@H](CCCNC(=N)N)NC(=O)[C@H](Cc1ccccc1)NC(=O)[C@@H](N)CCCNC(=N)N)[C@@H](C)CC)C(C)C)C(=O)N[C@@H](Cc1c[nH]cn1)C(=O)N1CCC[C@H]1C(=O)N1CCC[C@H]1C(=O)N1CCC[C@H]1C(=O)N[C@@H](Cc1ccccc1)C(=O)N[C@@H](Cc1ccc(O)cc1)C(=O)N[C@@H](CCCNC(=N)N)C(=O)N[C@@H](CCCNC(=N)N)C(=O)N[C@@H](Cc1ccccc1)C(=O)N[C@@H](CC(C)C)C(=O)O` [ChBac3.4-1-COOH (rec)] (H-RFRLPFRRIHPPPFVRIHPPPFYRRFL-OH; N-terminus assumed), the “SIh/b IC50PBMC/GMIC” value (IC50 toward human PBMC divided by GMIC) is reported as 8.1 and the “SIh/b ratio to ChBac3.4” value (ratio of SIh/b of the peptide to SIh/b of native ChBac3.4-NH2 (square brackets)) is reported as 2.0.

Peptide text beside a SMILES is read from it.
